Results reported in PubChem BioAssay AID1347076 (National Center for Advancing Translational Sciences (NCATS), 2019).
Out of some 400,000 compounds screened, about 13,000 (3.2%) were called active. Inconclusive means that the source gave no clear call. Such entries were picked first, then a sample of the others. The call rests on the fitted dose curve; in most records, active means well fitted cell-killing curve with a large enough effect; inconclusive means small, poorly fitted or top-dose-only effect, or effect the other way; inactive means flat fitted curve, though single readings scatter. A potency beside an inconclusive call is a rough fit, not a confirmed value.

Assay: qHTS assay for MDR1-selective chemotherapeutics: Primary screen using the drug-selected MDR subline cells KB-V1; further: nearly all actives have a fitted effect of over 60% in size
Conditions: KB-V1 MDR cells viability, CellTiter-Glo, 72 h; series mostly up to 46.1 µM
Outline: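 qHTS viability screen in drug-selected KB-V1 MDR cells: 72 h compound treatment at 37 degrees C, ATP luminescence end point.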
Potency means the concentration at half of the fitted maximal effect.

| Compound | Potency |
| --- | --- |
| Cc1cc(NC(=O)CN2C(=O)NC(C)(c3ccc(Cl)cc3)C2=O)no1 (centres undefined) | inconclusive: 29.1 µM [cytotoxic, single point] |
| COC(=O)[C@@]1(Cc2ccc(F)cc2)[C@H]2c3cc(C(=O)N(C)C)n(Cc4ccc(OC)c(OC)c4)c3C[C@H]2CN1C(=O)c1ccccc1 | inactive |
| Cc1cccc(OCCCC(=O)NC(C)c2ccccc2)c1 (centres undefined) | inconclusive: 16.4 µM [cytotoxic, single point] |
| CCC(C)NCCOCCOc1ccc(C)cc1OC (centres undefined) | inconclusive: 16.4 µM [cytotoxic, single point] |
| COCc1[nH][nH]c(=O)c1C=Nc1ccccc1 | inconclusive: 18.4 µM [rising, single point] |
| COc1ccc(-c2noc(CCCCC(=O)N3CCN(c4cc(C)ccc4C)CC3)n2)cc1 | inconclusive: 13 µM [cytotoxic, partial curve, poor fit] |
| O=C(Nc1ccc(S(=O)(=O)N2CCCC2)cc1)C1CCCCC1 | inconclusive: 16.4 µM [cytotoxic, single point] |
| COc1ccc([C@H]2CC(=O)C=C(c3cc(OC)ccc3OC)C2)cc1 | active: 23.1 µM |
| Cc1ccc(S(=O)(=O)N2CCN(Cc3cc(=O)n4ccccc4n3)CC2)cc1C | inactive |
| O=C(c1sccc1-c1ccccc1)N1CCN(S(=O)(=O)c2ccccc2F)CC1 | inconclusive: 9.2 µM [cytotoxic, partial curve] |
| COc1cc(C(=O)Sc2ccc(C)cc2)cc(OC)c1OC | inconclusive: 29.1 µM [rising, single point] |
| CCC(=O)c1ccc(OCC(=O)NC2(C#N)CCCCC2)cc1 | inconclusive: 16.4 µM [cytotoxic, single point] |
| Cc1onc(-c2ccccc2Cl)c1C(=O)Nc1nc2ccc(S(C)(=O)=O)cc2s1 | inactive |
| Cc1noc(C)c1COC(=O)c1csc2c1CCC(C)C2 (centres undefined) | active: 20.6 µM |
| CCOC(=O)c1c(C)[nH]c(=S)c(C#N)c1-c1ccc(Cl)cc1 | inactive |
| Cc1nc2c(C(=O)NCc3ccco3)cnn2c(C)c1Cc1ccc(F)cc1Cl | inactive |
| COc1cc(C(=O)N/N=C/c2coc3ccc(Cl)cc3c2=O)ccc1O | inconclusive: 25.9 µM [rising, single point] |
| CCN(CC)c1nc2ccccc2nc1C(C#N)C(=O)NCCCOC (centres undefined) | inconclusive: 6.51 µM [cytotoxic, partial curve, poor fit] |
| CCOC(=O)c1c(C)n(C)c2ccc(OC)c(NS(=O)(=O)CC)c12 | inconclusive: 5.17 µM [cytotoxic, full curve] |

Taken from above:
Entry for O=C(Nc1ccc(S(=O)(=O)N2CCCC2)cc1)C1CCCCC1 under Potency: inconclusive: 16.4 µM [cytotoxic, single point]
Entry for COc1cc(C(=O)N/N=C/c2coc3ccc(Cl)cc3c2=O)ccc1O under Potency: inconclusive: 25.9 µM [rising, single point]
